According to PMC3615292:
Results are given in words; binding and its absence hold for the method and conditions named. Some results given as binding are weak or reduced against the parent protein; the word gives no strength.

By UniProt entry, the sequences of proteins in these tests, tags left out. Residues count along the entry.
UniProt P05019, residues 49-118: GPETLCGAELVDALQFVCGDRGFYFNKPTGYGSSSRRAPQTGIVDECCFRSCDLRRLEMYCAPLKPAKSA
UniProt P17936, residues 28-291: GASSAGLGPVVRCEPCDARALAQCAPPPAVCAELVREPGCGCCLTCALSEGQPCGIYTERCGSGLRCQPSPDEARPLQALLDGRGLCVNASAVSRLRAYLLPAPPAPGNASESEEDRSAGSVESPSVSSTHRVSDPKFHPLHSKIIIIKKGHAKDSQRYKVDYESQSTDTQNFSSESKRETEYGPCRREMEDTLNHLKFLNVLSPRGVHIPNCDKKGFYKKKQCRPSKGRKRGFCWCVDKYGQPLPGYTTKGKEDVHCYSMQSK

Target: insulin-like growth factor 1 (IGF-1) (UniProt P05019)
Assay: ELISA; 96-well plate coated overnight with 50 nM T-IGF1 or 50 nM intact IGF-1; 50, 100 or 200 ng IGFBP3 in 100 uL 50 mM Tris-HCl pH 6.8 with 0.5% BSA, 22°C, 2 h; detected with anti-IGFBP3 antibody; relative binding as percent of control; both purified

**Q.** With “IGF-binding protein 3 (IGFBP3) (from UniProt P17936 28-291)” as the substance, how does the binding read?
**A.** Its binding is “binds”.
